Measurements as given in patent US20210113649A1.
These are yes or no findings as the source states them, for the method shown. Some entries that bind do so weakly or less than the wild type.

By UniProt entry, the sequences of proteins in these tests, tags left out. Residues count along the entry.
UniProt P63165, residues 1-97: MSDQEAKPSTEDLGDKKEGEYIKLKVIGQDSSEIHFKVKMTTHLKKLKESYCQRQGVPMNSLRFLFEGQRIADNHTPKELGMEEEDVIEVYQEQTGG

Assays:
SUMO1 [1] = target: SUMO1 (UniProt P63165); experiment: fluorescence polarization (FIG. 18B)
SUMO1 [2] = target: SUMO1 (UniProt P63165); experiment: fluorescence polarization, TAMRA-SIM2 with increased concentrations of SUMO1
SUMO1 [3] = target: SUMO1 (UniProt P63165); experiment: fluorescence polarization, TAMRA-SIM2 with increased concentrations of SUMO1 (FIG. 18B)

binding (SUMO1 [1]): binds | binding (SUMO1 [2]): binds | binding (SUMO1 [3]): binds
B1: TAMRA (5-carboxytetramethylrhodamine)-SIM2 peptide (peptide)
peptide: DPEEIIVLSDSD
modifications: TAMRA (5-carboxytetramethylrhodamine) label; position of attachment not stated
